Results taken from article doi:10.1101/2024.01.05.574302 (bioRxiv, 2024).
No constants are given. Whether binding was seen depends on the method and setting. In cells and extracts the contact can be indirect. A yes stands for co-enrichment or nearness to the bait. Other partners may have been found. Where a sequence is shown, tags or fusion partners need not be part of it.

Protein sequences, listed by entry. Tags and fused reporters are not part of them.
UniProt Q9QWY8: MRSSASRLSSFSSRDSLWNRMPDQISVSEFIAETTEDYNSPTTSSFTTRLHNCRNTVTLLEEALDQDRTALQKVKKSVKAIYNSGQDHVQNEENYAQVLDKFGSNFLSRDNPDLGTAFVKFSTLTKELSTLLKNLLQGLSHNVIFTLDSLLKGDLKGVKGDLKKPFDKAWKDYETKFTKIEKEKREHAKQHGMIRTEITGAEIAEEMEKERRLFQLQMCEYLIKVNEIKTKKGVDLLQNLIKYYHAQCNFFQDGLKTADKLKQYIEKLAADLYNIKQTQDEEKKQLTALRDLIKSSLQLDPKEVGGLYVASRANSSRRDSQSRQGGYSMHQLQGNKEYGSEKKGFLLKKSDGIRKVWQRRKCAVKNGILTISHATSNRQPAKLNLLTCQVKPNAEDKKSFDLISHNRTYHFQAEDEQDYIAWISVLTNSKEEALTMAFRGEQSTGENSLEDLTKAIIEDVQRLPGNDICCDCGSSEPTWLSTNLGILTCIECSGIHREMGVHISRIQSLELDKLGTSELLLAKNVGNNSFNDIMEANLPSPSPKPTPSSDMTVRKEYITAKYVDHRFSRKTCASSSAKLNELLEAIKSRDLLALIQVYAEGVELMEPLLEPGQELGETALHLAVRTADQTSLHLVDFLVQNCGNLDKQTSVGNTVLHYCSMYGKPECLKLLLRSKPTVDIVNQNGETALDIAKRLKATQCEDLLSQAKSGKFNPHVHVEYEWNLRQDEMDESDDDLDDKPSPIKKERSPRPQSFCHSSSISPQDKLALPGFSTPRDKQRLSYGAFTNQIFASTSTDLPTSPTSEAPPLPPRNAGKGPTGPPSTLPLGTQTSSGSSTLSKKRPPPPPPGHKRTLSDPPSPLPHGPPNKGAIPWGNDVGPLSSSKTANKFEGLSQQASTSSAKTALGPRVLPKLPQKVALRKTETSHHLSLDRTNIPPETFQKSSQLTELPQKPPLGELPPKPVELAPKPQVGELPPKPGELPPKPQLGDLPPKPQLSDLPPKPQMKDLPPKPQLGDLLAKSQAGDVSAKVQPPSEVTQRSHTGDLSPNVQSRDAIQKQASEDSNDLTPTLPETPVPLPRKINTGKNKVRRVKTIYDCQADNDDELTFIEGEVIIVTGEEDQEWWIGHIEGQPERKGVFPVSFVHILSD
UniProt Q7SIG6: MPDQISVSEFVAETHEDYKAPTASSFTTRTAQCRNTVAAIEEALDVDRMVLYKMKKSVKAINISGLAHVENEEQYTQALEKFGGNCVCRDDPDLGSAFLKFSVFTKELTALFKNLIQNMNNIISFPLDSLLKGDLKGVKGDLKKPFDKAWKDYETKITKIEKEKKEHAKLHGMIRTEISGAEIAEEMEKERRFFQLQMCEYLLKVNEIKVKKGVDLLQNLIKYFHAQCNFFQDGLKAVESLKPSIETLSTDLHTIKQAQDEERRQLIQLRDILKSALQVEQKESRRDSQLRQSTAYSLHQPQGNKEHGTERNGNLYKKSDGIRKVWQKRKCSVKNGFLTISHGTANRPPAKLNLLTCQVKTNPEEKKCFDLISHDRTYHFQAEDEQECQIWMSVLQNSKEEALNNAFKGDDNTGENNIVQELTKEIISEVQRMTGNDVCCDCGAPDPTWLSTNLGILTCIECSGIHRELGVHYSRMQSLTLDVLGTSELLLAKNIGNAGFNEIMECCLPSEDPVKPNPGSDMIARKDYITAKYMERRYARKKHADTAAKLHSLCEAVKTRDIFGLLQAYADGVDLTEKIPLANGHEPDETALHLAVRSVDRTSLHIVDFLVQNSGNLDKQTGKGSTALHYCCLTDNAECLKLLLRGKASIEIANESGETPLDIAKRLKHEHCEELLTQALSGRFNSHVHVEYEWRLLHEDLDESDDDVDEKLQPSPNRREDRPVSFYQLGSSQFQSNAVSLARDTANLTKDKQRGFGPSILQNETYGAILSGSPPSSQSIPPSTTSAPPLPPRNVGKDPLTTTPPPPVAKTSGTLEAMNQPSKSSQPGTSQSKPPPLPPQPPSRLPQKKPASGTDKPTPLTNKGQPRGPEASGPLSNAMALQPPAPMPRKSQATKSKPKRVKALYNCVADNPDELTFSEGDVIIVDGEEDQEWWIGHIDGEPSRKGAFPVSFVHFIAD

Biological target: T1, gAnkB (aa. 1476-1727) fragment of the neurospecific domain, Trx-His6-3×StrepII fusion (human) (UniProt Q01484)
T1 sequence: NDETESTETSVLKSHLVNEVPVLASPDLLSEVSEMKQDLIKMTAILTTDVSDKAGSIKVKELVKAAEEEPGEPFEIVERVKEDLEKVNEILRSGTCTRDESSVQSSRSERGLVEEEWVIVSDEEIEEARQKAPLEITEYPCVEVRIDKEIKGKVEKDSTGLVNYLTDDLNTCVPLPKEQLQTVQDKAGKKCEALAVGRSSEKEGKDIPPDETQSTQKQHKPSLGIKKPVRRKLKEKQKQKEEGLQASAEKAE
Assay: affinity purification with mass spectrometry

Substance	binding
ASAP1 (endogenous, mouse brain) (from UniProt Q9QWY8 1-1147)	binds
ASAP2 (endogenous, mouse brain) (from UniProt Q7SIG6 1-958)	binds
